Numbering of substitutions follows the chain as printed. Some of the results follow. For some assays here: At the low end of the ranking, values are background and their order means little.
Legend:
Settings in all cases: yeast three-hybrid, YBZ-1, SC-Leu-His + 0.5 mM 3-AT, 4 days
[1] = biological target: T1, PUM1 PUF domain R2-AFW N899A + Y900F + Q903W (UniProt Q14671)
T1 sequence: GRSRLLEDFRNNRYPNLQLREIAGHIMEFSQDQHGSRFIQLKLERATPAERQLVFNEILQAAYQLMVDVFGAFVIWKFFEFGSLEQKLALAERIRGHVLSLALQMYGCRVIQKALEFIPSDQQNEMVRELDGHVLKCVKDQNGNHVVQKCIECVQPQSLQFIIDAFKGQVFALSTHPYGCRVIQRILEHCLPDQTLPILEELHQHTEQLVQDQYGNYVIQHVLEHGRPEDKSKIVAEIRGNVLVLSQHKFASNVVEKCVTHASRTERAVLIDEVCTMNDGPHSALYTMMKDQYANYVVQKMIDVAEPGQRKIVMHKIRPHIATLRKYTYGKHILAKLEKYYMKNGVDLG

[2] = biological target: T2, PUM1 PUF domain R2-AKP N899A + Y900K + Q903P (UniProt Q14671)
T2 sequence: T1 sequence with F73K, W76P

[3] = biological target: T3, PUM1 PUF domain R2-ARP N899A + Y900R + Q903P (UniProt Q14671)
T3 sequence: T1 sequence with F73R, W76P

[4] = biological target: T4, PUM1 PUF domain R2-AWD N899A + Y900W + Q903D (UniProt Q14671)
T4 sequence: T1 sequence with F73W, W76D

[5] = biological target: T5, PUM1 PUF domain R2-AWS N899A + Y900W + Q903S (UniProt Q14671)
T5 sequence: T1 sequence with F73W, W76S

[6] = biological target: T6, PUM1 PUF domain R2-AWW N899A + Y900W + Q903W (UniProt Q14671)
T6 sequence: T1 sequence with F73W

[7] = biological target: T7, PUM1 PUF domain R2-AYW N899A + Q903W (UniProt Q14671)
T7 sequence: T1 sequence with F73Y

[8] = biological target: T8, PUM1 PUF domain R2-CWP N899C + Y900W + Q903P (UniProt Q14671)
T8 sequence: T1 sequence with A72C, F73W, W76P

[9] = biological target: T9, PUM1 PUF domain R2-DWC N899D + Y900W + Q903C (UniProt Q14671)
T9 sequence: T1 sequence with A72D, F73W, W76C

[10] = biological target: T10, PUM1 PUF domain R2-DWI N899D + Y900W + Q903I (UniProt Q14671)
T10 sequence: T1 sequence with A72D, F73W, W76I

[11] = biological target: T11, PUM1 PUF domain R2-DWL N899D + Y900W + Q903L (UniProt Q14671)
T11 sequence: T1 sequence with A72D, F73W, W76L

[12] = biological target: T12, PUM1 PUF domain R2-EHL N899E + Y900H + Q903L (UniProt Q14671)
T12 sequence: T1 sequence with A72E, F73H, W76L

[13] = biological target: T13, PUM1 PUF domain R2-EWA N899E + Y900W + Q903A (UniProt Q14671)
T13 sequence: T1 sequence with A72E, F73W, W76A

[14] = biological target: T14, PUM1 PUF domain R2-EWL N899E + Y900W + Q903L (UniProt Q14671)
T14 sequence: T1 sequence with A72E, F73W, W76L

[15] = biological target: T15, PUM1 PUF domain R2-EWS N899E + Y900W + Q903S (UniProt Q14671)
T15 sequence: T1 sequence with A72E, F73W, W76S

[16] = biological target: T16, PUM1 PUF domain R2-GWF N899G + Y900W + Q903F (UniProt Q14671)
T16 sequence: T1 sequence with A72G, F73W, W76F

[17] = biological target: T17, PUM1 PUF domain R2-IVF N899I + Y900V + Q903F (Homo sapiens) (UniProt Q14671)
T17 sequence: T1 sequence with A72I, F73V, W76F

[18] = biological target: T18, PUM1 PUF domain R3-GHP C935G + R936H + Q939P (Homo sapiens) (UniProt Q14671)
T18 sequence: T1 sequence with A72N, F73Y, W76Q, C108G, R109H, Q112P

[19] = biological target: T19, PUM1 PUF domain R3-IFL C935I + R936F + Q939L (Homo sapiens) (UniProt Q14671)
T19 sequence: T1 sequence with A72N, F73Y, W76Q, C108I, R109F, Q112L

[20] = biological target: T20, PUM1 PUF domain R3-RSL C935R + R936S + Q939L (Homo sapiens) (UniProt Q14671)
T20 sequence: T1 sequence with A72N, F73Y, W76Q, C108R, R109S, Q112L

## GGCUAGAACUAGUGGAUCCCCCGGCGCCCGGCGGCUCGAGCCCGGGUAAGUGUAAAUAGUCUGCAUGCCGCCGGGCGCCAUGCCUGCAGGUCGACUCUAGAAAACAUG
[1]
  binding signal (log2 enrichment (interaction score)): < -8.19
[2]
  binding signal (log2 enrichment (interaction score)): < -8
[3]
  binding signal (log2 enrichment (interaction score)): < -8.68
[4]
  binding signal (log2 enrichment (interaction score)): < -6.16
[5]
  binding signal (log2 enrichment (interaction score)): < -6.01
[6]
  binding signal (log2 enrichment (interaction score)): < -7.84
[7]
  binding signal (log2 enrichment (interaction score)): < -7.16
[8]
  binding signal (log2 enrichment (interaction score)): < -7.18
[9]
  binding signal (log2 enrichment (interaction score)): < -6.89
[10]
  binding signal (log2 enrichment (interaction score)): < -6.8
[11]
  binding signal (log2 enrichment (interaction score)): < -8.24
[12]
  binding signal (log2 enrichment (interaction score)): < -5.45
[13]
  binding signal (log2 enrichment (interaction score)): < -6.95
[14]
  binding signal (log2 enrichment (interaction score)): < -6.87
[15]
  binding signal (log2 enrichment (interaction score)): < -8.07
[16]
  binding signal (log2 enrichment (interaction score)): < -7.92
[17]
  binding signal (log2 enrichment (interaction score)): < -5.77
[18]
  binding signal (log2 enrichment (interaction score)): 1.22
[19]
  binding signal (log2 enrichment (interaction score)): 1.4
[20]
  binding signal (log2 enrichment (interaction score)): -1.92

— publication PMC8384837
